This is an account of results in article PMC3366963.

Sequences of proteins named here, by UniProt entry; tags and fusion partners are left off. A change or cut given only in a name is not applied to a line headed by its entry. Residues count along the entry.
UniProt Q14191: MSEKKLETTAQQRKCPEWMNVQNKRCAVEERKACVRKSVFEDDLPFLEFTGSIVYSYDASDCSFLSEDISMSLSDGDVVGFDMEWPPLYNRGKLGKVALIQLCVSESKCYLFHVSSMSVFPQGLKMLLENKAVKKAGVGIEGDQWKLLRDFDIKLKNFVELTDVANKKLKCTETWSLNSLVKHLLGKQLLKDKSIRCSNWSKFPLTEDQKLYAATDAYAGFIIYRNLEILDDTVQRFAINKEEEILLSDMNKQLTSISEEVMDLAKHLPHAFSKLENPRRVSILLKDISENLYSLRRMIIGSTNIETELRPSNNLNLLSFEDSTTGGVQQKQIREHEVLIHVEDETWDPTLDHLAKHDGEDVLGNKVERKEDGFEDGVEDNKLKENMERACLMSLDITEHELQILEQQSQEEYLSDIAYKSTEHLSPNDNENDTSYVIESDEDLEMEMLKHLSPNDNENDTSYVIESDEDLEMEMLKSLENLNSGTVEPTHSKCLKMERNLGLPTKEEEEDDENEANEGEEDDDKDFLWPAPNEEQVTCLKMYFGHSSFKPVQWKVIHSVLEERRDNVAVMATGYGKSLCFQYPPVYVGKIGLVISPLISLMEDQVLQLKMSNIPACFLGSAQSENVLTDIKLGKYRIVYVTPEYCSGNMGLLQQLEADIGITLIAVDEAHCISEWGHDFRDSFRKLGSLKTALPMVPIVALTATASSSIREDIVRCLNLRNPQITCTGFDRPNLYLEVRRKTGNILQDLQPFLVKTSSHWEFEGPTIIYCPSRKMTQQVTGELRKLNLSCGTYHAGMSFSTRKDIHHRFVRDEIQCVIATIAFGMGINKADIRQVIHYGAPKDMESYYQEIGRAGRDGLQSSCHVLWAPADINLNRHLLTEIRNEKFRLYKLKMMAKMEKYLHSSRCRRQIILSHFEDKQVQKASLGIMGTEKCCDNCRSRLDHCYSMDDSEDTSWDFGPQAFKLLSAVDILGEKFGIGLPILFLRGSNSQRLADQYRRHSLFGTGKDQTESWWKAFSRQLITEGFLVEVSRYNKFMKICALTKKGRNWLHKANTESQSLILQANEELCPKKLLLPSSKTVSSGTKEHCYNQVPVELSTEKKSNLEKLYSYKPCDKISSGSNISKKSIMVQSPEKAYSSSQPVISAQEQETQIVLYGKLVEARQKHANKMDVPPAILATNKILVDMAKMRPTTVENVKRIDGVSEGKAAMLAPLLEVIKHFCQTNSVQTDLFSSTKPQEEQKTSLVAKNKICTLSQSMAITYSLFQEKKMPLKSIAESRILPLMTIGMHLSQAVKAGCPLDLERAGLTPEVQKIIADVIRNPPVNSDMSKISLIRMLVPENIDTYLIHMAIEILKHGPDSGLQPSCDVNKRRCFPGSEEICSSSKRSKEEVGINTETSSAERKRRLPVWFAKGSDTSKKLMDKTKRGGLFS
GFP-NCL 1–283 (N-terminal domain) (P19338, residues 1-283): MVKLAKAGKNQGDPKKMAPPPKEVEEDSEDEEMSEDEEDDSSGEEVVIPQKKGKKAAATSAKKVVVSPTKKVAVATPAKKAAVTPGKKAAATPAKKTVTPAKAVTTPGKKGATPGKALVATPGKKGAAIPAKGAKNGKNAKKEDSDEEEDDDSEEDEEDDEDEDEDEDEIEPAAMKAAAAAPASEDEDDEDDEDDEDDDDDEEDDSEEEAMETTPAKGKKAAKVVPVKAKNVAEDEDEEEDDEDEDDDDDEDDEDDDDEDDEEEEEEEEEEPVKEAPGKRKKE
GFP-NCL 284–707 (GFP-ΔN-NCL) (P19338, residues 284-707): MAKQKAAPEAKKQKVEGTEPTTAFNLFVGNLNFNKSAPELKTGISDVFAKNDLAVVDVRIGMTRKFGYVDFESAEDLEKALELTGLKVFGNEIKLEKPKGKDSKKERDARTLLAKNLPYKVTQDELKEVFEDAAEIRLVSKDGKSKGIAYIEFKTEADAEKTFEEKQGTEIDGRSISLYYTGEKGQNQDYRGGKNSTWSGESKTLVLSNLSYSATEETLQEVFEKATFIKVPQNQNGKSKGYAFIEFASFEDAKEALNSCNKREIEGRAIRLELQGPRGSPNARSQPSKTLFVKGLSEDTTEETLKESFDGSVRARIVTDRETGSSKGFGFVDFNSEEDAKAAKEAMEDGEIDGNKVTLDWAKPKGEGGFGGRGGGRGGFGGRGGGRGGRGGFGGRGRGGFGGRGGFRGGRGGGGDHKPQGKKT

These are yes or no findings as the source states them, for the method shown. In cells and extracts the contact can be indirect. Some entries that bind do so weakly or less than the wild type.

The test deals with Werner protein (WRNp), endogenous (human (endogenous in TERT-1604, HeLa, U2OS)) (UniProt Q14191). Put plainly: co-IP; extracts of HeLa cells transiently transfected with GFP-NCL constructs (150 mM NaCl, 50 mM Tris-HCl pH 7.5, 0.5% NP-40), precipitated with WRN antibody, blotted with anti-GFP.

In the case of “GFP-NCL 1–283 (N-terminal domain) (from UniProt P19338 1-283) (domain or fragment)”, the binding entry is recorded as “no binding”.

Consider “GFP-NCL 284–707 (GFP-ΔN-NCL) (from UniProt P19338 284-707) (domain or fragment)”, for which the binding entry is recorded as “binds”.
